At least one read-out could not be matched to a standard name with certainty.
Test system: Rats
Test: Coronary ligation (C. L.) in anesthetized rats: mortality after LAD occlusion
Type: in vivo
Settings: rat; drug via jugular vein 15 min before LAD occlusion; control mortality 73 percent with vehicle alone

Structure (SMILES)	percentage mortality upon coronary ligation (C. L.) [%]
COc1ccc(CCN(C)CCCS(=O)(=O)N(c2ccc(OC)c(OC)c2)C(C)C)cc1OC [Example 2, N-(3,4-Dimethoxyphenyl)-3-[[2-(3,4-dimethoxyphenyl)ethyl]methylaminol]-N-(1-methylethyl)-1-prop-anesulphonamide]	0
COc1ccc(CCN(C)CCCS(=O)(=O)N(c2cc(Cl)cc(Cl)c2)C(C)C)cc1OC [Example 4, N-(3,5-Dichlorophenyl)-3-[[2-(3,4-dimethoxyphenyl)ethyl]methylamino]-N-(1-methylethyl)-1-propanesulp-honamide]	0
COc1ccc(CCN(C)CCCN(C(C)C)S(=O)(=O)c2ccc(Cl)c(Cl)c2)cc1OC [Example 9, 3,4-Dichloro-N-[3-[[2-(3,4-dimethoxyphenyl)ethyl]methylamino]propyl]-N-(1-methylethyl) benzenesulphonamide]	0
COc1ccc(CCN(C)CCN(C(C)C)S(=O)(=O)c2ccc(Cl)c(Cl)c2)cc1OC [Example 13, N-[2-[[2-(3,4-Dimethoxyphenyl)ethyl]methylamino]ethyl]-N-(1-methylethyl)-3,4-dichlorobenzenesul-phonamide]	0
COc1ccc(CCN(C)CCCCN(C(C)C)S(=O)(=O)c2ccc(Cl)c(Cl)c2)cc1OC [Example 14, 3,4-Dichloro-N-(4-[[2-(3,4-dimethoxyphenyl)ethyl]methylamino]butyl]-N-(1-methylethyl) benzenesulphonamide]	0
COc1ccc(CCN(C)CCCN(C(C)C)S(=O)(=O)c2ccc(OC)c(OC)c2OC)cc1OC [Example 15, N-[3-[[2-(3,4-dimethoxyphenyl)ethyl]methylamino]propyl]-N-(1-methylethyl)-2.3,4-trimethoxybenzenesul-phonamide]	0

— EP0167245B1, “Anti-arrhythmic agents” (AMERICAN HOME PRODUCTS CORPORATION, priority 1984, dated 1986)
